# Small-molecule microarray binding calls

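Each compound is printed as two spots on a slide made to bind it covalently, so it has no test concentration; the read-out is fluorescence of the bound, labelled oligonucleotide. For the PreQ1, TPP and SAM-II riboswitches the laboratory earlier reported (doi:10.1038/s41467-019-09493-3) 1 µM RNA, 2 h, and a rule that included a mean Z-score above 3 (spot signal-to-noise against the whole library), a score well above that on a control array, and duplicate spots agreeing (coefficient of variation under 100). The data file gives only the calls; its cut-offs may differ, and compounds hitting several targets are kept. These are primary screening calls, not affinities; a compound without a hit may have attached poorly or may still bind in solution.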
“active” means called a hit, “inactive” means screened and not called a hit.
The compounds are a random part of those screened.
A target missing from an entry has no call listed here.

Oligonucleotides screened, 5′ to 3′:
SAM-II: SAM-II riboswitch RNA pseudoknot, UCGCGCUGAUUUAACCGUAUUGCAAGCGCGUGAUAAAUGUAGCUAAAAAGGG. About 200 hits among about 21,000 compounds.
TPP: TPP riboswitch RNA three-way junction, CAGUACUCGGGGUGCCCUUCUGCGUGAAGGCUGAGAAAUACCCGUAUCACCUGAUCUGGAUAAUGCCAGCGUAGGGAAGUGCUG. About 160 hits among about 24,000 compounds.
PreQ1: PreQ1 riboswitch RNA pseudoknot, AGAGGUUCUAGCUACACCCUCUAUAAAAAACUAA. From B. subtilis. About 170 hits among about 24,000 compounds.

For CC1=C(C(N)=O)S(=O)(=O)c2ccccc21 the calls were SAM-II: inactive; TPP: inactive; PreQ1: inactive. With CCOC(=O)C1=C(N)OC2=C(C(=O)CC(C)(C)C2)C1C1CCCCC1 (stereo not drawn) the screen gave SAM-II: inactive; TPP: inactive; PreQ1: inactive. For O=C1CN(Cc2cc3n(n2)CCNC3)CCN1Cc1ccc2c(c1)OCO2 the calls were SAM-II: inactive; TPP: inactive; PreQ1: inactive. Calls for CN1C[C@H](NC(=O)Nc2ccc(-c3cccc(F)c3)cc2)C[C@H]1CO are SAM-II: inactive; TPP: inactive; PreQ1: inactive. With Cc1ccc(C2CC(=O)C=C(NC3Cc4ccccc4C3)C2)cc1 (stereo not drawn) the screen gave SAM-II: inactive; TPP: inactive; PreQ1: inactive.

CCOCCCNc1nc2c(S(=O)(=O)c3ccc(Cl)cc3)nnn2c2ccccc12 was scored SAM-II: inactive; TPP: inactive; PreQ1: inactive. With O=C(NC1CCN(Cc2ccccn2)CC1)c1cnn2cc(CCO)cnc12 the screen gave SAM-II: inactive; TPP: inactive; PreQ1: inactive. CC(C)N(CC[C@H](c1ccccc1)c1cc(CO)ccc1O)C(C)C was scored SAM-II: inactive; TPP: inactive; PreQ1: inactive. With Cc1nc2cc(C(=O)NCCN3CCCC(CO)C3)ccc2[nH]1 (stereo not drawn) the screen gave SAM-II: inactive; TPP: inactive; PreQ1: inactive. For COc1ccc(C2(NCc3cc(OC)ccc3OC)C(=O)c3ccccc3C2=O)cc1 the calls were SAM-II: inactive; TPP: inactive; PreQ1: inactive.

O=C(Nc1ccc(O)c(C(=O)O)c1)Oc1ccccc1 was scored SAM-II: inactive; TPP: inactive; PreQ1: inactive. With COC(=O)C1=C(C)OC(N)=C(C(=O)OCc2ccccc2)C12C(=O)Nc1ccccc12 (stereo not drawn) the screen gave SAM-II: inactive; TPP: inactive; PreQ1: inactive. For COc1cccc(NS(=O)(=O)c2cc(Br)cnc2N)c1 the calls were TPP: inactive; PreQ1: inactive. Cn1c(=O)c2c(nc(NCCOCCO)n2C)n(C)c1=O was scored SAM-II: inactive; TPP: inactive; PreQ1: active. For NC(=O)c1ccc2c(c1)S(=O)(=O)c1ccccc1C2=O the calls were SAM-II: inactive; TPP: inactive; PreQ1: inactive.

For C[C@H]1c2cccc(O)c2C(O)=C2C(=O)[C@]3(O)C(O)=C(C(N)=O)C(=O)[C@@H](N(C)C)[C@@H]3[C@@H](O)[C@@H]21 the calls were SAM-II: inactive; TPP: inactive; PreQ1: inactive. CN(C)C1CCN(Cc2nnc(CC3CCNCC3)n2C)C1 (stereo not drawn) was scored SAM-II: inactive; TPP: inactive; PreQ1: inactive. For CC(C)(C)c1ccc2oc(CNC3CCOC4(CCOCC4)C3)nc2c1 (stereo not drawn) the calls were SAM-II: inactive; TPP: inactive; PreQ1: inactive. Cn1c(=O)c2c(ncn2CC(O)CN2CCN(CCO)CC2)n(C)c1=O (stereo not drawn) was scored SAM-II: inactive; TPP: inactive; PreQ1: inactive. Calls for N#Cc1ccccc1C(=O)N1CC[C@@H]2[C@@H](CCC(=O)N2CCCCO)C1 are SAM-II: inactive; TPP: inactive; PreQ1: inactive.

With Cc1cnccc1NCCn1ccnc1-c1cc2n(n1)CCNC2 the screen gave SAM-II: inactive; TPP: inactive; PreQ1: inactive.

Source: the ROBIN nucleic acid binder screens (doi:10.1002/anie.202211358).